The list shows a part of the results. The calls rarely recur for the same compound in another form.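 In K562 cells expressing nanoluciferase-fused kinases, luminescence was recorded at 4 h intervals between 2 and 18 h, normalized as percent of control with DMSO at 100% and a positive control at 0%. A significant (2 sigma) signal drop marks a time point as decreased. The authors' rule for a hit is not shown and takes in more than the number of time points.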
Legend:
Test in all cases: number of time points (of 5) at which kinase-Nluc abundance scored as decreased, DMSO-normalised (count); higher = more persistent destabilization
Details in all cases: K562; 2-18 h
EGFR_L861Q = EGFR_L861Q (UniProt P00533)
EGFR_T790M = EGFR_T790M (UniProt P00533)
EPHA2 = EPHA2 (UniProt P29317)
ERBB3 = ERBB3 (UniProt P21860)
[1] = biological target: ERBB4_R711C (clone: ERBB4_mut) (UniProt Q15303)
ERN1 = ERN1 (UniProt O75460)
FGFR1 = FGFR1 (UniProt P11362)
FGFR2 = FGFR2 (UniProt P21802)
FGFR3 = FGFR3 (UniProt P22607)
FGR = FGR (UniProt P09769)
FLT3 = FLT3 (UniProt P36888)
FYN = FYN (UniProt P06241)
GSK3A = GSK3A (UniProt P49840)
HER2 = HER2 (UniProt P04626)
INSRR = INSRR (UniProt P14616)
IRAK3 = IRAK3 (UniProt Q9Y616)
JAK1 = JAK1 (UniProt P23458)
LCK = LCK (UniProt P06239)
LIMK1 = LIMK1 (UniProt P53667)
LIMK2 = LIMK2 (UniProt P53671)

By UniProt entry, the sequences of proteins in these tests, tags left out. Where a name states a change or a piece, a line headed by the entry shows the natural chain unless it says otherwise.
UniProt O75460: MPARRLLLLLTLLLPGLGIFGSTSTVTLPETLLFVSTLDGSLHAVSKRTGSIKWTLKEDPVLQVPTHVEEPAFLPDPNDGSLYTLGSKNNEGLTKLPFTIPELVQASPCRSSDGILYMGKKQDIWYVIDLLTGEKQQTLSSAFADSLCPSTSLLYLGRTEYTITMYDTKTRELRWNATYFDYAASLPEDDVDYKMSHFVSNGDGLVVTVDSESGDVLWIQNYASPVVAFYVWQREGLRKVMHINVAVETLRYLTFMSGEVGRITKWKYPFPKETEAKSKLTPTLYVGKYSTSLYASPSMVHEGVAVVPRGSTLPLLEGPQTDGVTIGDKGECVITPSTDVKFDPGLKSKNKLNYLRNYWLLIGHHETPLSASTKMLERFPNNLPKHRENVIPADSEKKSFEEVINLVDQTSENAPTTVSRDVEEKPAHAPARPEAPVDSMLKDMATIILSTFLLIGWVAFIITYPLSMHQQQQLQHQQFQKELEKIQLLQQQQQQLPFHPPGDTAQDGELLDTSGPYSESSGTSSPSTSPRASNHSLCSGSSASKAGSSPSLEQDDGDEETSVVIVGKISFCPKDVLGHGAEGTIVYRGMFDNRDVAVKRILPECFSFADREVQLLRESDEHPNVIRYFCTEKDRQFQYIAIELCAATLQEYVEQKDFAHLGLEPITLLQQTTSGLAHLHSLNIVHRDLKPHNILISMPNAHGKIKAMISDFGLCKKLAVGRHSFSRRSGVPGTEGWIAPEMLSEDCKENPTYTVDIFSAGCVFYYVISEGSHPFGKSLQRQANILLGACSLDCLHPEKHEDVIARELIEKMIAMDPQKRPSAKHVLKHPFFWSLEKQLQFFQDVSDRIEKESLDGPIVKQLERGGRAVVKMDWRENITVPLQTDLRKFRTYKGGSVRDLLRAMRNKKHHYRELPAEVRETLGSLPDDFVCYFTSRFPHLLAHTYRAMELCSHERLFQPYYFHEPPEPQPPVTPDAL
UniProt P36888, whole entry: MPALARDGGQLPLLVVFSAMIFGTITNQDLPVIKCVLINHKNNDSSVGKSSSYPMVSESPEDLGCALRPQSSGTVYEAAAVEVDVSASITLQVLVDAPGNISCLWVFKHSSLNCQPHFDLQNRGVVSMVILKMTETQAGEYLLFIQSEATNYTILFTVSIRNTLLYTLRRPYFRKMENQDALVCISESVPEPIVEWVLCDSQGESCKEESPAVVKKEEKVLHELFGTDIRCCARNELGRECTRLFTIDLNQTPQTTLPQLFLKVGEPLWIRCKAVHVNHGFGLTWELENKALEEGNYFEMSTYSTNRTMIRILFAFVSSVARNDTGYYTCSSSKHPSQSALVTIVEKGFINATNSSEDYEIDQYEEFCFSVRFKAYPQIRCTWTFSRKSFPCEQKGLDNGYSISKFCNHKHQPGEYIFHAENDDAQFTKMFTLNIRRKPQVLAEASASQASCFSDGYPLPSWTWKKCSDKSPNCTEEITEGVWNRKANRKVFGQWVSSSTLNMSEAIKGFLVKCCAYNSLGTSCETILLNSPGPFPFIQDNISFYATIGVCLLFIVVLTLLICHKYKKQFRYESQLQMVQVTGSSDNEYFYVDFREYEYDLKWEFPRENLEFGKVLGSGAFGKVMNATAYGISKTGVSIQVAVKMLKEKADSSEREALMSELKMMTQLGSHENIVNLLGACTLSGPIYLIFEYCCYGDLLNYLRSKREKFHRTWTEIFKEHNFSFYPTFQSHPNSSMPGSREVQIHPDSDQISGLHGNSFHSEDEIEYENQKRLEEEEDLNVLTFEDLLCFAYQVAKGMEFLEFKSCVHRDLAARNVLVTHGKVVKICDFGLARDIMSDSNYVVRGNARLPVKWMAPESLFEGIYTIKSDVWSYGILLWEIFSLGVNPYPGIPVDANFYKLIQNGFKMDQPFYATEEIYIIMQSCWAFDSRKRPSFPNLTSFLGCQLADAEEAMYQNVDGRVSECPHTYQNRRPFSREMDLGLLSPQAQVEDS
UniProt P49840: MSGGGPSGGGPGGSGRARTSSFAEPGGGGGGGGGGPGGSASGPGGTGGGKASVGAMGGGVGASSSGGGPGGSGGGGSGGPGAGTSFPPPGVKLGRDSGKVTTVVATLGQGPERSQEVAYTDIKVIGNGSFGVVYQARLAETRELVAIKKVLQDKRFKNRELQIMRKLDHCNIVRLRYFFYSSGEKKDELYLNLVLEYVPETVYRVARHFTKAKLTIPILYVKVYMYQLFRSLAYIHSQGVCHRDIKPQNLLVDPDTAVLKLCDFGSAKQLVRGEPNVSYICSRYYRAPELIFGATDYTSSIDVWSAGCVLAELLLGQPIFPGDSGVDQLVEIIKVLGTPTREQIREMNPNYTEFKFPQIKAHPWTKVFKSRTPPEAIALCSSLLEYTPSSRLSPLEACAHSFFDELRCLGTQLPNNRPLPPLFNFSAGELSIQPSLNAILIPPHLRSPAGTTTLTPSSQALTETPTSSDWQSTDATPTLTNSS
UniProt P14616: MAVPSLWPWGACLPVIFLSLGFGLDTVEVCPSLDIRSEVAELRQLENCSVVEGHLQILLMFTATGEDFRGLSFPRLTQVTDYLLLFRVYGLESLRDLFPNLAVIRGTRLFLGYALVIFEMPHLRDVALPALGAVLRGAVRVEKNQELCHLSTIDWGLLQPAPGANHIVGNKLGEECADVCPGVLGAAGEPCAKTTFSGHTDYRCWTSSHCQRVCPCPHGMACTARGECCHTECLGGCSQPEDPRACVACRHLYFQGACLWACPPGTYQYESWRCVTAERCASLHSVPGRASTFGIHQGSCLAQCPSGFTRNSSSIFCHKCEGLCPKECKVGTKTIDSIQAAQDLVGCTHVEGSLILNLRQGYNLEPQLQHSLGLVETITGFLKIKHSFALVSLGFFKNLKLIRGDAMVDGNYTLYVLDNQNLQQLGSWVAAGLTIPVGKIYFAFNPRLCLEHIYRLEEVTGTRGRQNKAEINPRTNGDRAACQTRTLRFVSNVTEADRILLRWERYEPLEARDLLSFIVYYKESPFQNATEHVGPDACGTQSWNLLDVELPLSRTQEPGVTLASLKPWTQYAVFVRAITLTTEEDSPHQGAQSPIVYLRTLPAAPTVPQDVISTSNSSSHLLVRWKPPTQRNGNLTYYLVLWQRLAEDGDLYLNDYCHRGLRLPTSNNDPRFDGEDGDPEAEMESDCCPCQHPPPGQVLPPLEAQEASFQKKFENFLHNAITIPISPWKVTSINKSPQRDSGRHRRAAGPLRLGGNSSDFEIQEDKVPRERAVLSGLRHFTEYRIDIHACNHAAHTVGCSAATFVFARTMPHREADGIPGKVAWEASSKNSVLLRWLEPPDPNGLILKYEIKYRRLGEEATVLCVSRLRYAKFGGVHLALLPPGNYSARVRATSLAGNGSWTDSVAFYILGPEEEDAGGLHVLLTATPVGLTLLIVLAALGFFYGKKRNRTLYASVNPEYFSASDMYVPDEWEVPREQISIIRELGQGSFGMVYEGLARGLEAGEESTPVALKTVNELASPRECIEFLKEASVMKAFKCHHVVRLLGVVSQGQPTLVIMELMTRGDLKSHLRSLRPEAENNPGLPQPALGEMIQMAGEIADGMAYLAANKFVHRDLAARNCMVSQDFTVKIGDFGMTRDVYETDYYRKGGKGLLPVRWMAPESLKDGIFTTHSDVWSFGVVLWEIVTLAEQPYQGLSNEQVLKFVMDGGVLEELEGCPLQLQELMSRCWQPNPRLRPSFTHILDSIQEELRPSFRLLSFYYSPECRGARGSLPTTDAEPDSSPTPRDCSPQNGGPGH
UniProt Q9Y616: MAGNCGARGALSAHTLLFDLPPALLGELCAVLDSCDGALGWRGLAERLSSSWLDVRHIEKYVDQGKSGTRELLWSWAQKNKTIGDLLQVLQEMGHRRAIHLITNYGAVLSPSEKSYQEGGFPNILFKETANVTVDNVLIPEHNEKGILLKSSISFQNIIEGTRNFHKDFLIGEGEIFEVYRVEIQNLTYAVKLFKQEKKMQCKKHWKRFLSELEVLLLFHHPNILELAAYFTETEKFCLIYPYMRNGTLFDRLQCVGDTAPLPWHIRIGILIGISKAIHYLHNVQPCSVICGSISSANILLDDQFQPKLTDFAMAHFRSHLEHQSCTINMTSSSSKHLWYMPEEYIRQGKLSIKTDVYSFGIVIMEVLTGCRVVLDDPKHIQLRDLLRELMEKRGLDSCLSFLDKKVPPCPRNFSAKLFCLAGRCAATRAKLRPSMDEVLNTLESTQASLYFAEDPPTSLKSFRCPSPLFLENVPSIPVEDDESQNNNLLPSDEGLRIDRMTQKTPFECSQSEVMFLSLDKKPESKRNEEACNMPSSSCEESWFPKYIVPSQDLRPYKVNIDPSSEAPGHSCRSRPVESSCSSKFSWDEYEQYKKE
UniProt P23458: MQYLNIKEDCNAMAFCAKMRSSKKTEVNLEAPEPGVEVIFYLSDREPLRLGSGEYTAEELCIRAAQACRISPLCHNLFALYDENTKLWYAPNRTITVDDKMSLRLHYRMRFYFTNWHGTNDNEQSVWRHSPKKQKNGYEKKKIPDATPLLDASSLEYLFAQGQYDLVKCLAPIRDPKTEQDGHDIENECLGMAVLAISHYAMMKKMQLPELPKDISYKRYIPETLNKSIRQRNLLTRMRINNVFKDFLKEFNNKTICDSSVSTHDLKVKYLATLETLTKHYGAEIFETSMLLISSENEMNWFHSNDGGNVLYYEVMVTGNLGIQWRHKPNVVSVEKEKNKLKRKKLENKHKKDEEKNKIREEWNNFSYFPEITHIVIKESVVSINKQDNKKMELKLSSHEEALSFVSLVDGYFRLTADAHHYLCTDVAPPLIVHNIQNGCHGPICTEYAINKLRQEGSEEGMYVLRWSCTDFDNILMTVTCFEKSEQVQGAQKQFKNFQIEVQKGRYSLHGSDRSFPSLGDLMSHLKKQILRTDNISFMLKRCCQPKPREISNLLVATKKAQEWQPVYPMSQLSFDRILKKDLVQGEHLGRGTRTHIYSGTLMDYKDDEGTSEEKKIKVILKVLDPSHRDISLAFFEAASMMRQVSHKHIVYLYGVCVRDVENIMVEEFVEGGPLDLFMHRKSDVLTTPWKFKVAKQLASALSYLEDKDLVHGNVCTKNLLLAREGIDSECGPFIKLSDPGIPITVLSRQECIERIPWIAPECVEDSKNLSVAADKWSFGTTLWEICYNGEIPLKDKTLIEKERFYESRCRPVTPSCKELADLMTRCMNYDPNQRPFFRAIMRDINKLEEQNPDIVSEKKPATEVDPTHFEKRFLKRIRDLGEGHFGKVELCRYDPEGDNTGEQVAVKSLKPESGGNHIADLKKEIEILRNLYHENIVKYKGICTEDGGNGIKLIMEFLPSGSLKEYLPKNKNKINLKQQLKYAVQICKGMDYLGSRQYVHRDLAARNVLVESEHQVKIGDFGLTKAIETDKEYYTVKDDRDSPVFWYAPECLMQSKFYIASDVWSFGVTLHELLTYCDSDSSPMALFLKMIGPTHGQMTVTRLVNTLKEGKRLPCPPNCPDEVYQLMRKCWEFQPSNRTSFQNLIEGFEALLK
UniProt P53667: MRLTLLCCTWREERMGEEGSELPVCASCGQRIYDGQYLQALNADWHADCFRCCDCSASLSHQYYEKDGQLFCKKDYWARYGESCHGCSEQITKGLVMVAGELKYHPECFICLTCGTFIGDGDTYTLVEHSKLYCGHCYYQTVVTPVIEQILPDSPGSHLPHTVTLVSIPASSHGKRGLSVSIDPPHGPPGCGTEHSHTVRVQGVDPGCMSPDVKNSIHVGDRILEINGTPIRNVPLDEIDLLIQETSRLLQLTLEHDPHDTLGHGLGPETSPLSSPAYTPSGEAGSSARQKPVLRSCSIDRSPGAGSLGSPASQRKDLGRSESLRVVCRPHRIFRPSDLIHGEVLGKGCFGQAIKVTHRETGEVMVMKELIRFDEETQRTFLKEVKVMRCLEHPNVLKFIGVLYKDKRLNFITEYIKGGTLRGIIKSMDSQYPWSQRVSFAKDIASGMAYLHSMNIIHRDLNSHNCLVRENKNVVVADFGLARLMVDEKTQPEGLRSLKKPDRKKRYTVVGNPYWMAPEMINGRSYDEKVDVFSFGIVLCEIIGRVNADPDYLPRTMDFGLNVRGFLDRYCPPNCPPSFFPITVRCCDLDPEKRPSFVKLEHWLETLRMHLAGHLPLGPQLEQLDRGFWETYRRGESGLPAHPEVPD

| SMILES | number of time points (EGFR_L861Q) | number of time points (EGFR_T790M) | number of time points (EPHA2) | number of time points (ERBB3) | number of time points [1] | number of time points (ERN1) | number of time points (FGFR1) | number of time points (FGFR2) | number of time points (FGFR3) | number of time points (FGR) | number of time points (FLT3) | number of time points (FYN) | number of time points (GSK3A) | number of time points (HER2) | number of time points (INSRR) | number of time points (IRAK3) | number of time points (JAK1) | number of time points (LCK) | number of time points (LIMK1) | number of time points (LIMK2) |
| --- | --- | --- | --- | --- | --- | --- | --- | --- | --- | --- | --- | --- | --- | --- | --- | --- | --- | --- | --- | --- |
| Cc1cc(=O)oc2c(C=O)c(O)ccc12 (10 µM) | 0 | 0 | 0 | 0 | 0 | 0 | 0 | 0 | 0 | 0 | 0 | 0 | 0 | 0 | 0 | 0 | 0 | 0 | 0 | 0 |
| O=C(N/N=C/c1coc2ccccc2c1=O)c1cccnc1 (10 µM) | 0 | 0 | 0 | 0 | 0 | 0 | 0 | 0 | 0 | 0 | 0 | 0 | 0 | 0 | 0 | 0 | 0 | 0 | 0 | 0 |
| CN(C)CCCOc1ccc(-c2ccc3ncc4c(c3c2)n(C2CCOCC2)c(=O)n4C)cn1 (2 µM) | 0 | 0 | 0 | 0 | 0 | 0 | 0 | 0 | 0 | 0 | 0 | 0 | 0 | 0 | 0 | 0 | 0 | 0 | 1 | 0 |
| CCNc1nc(Nc2cc(F)c(C(=O)N3CCOCC3)cc2OC)ncc1C(F)(F)F [GNE-7915 (tosylate)] (10 µM) | 0 | 0 | 0 | 0 | 0 | 0 | 0 | 0 | 0 | 0 | 0 | 0 | 0 | 0 | 0 | 0 | 0 | 0 | 0 | 0 |
| CCCS(=O)(=O)Nc1ccc(F)c(C(=O)c2c[nH]c3ncc(-c4ccc(Cl)cc4)cc23)c1F [Vemurafenib] (10 µM) | 0 | 0 | 0 | 0 | 0 | 0 | 1 | 0 | 1 | 0 | 0 | 1 | 0 | 1 | 0 | 0 | 0 | 0 | 2 | 0 |
| O=C(NOCC(O)CO)c1cc(Br)c(F)c(F)c1Nc1ccc(I)cc1F (stereo not given) (2.5 µM) | 0 | 0 | 0 | 0 | 0 | 0 | 0 | 0 | 0 | 0 | 0 | 0 | 0 | 0 | 0 | 0 | 0 | 0 | 0 | 0 |
| COc1ccc2c(OCc3nnc4ccc(-c5ccccc5)nn34)ccnc2c1 (2 µM) | 0 | 0 | 0 | 0 | 0 | 0 | 0 | 0 | 0 | 0 | 0 | 0 | 0 | 0 | 0 | 0 | 0 | 0 | 0 | 0 |
| O=C(Nc1cn[nH]c1-c1ccccn1)c1nn(C2CCNCC2)cc1Cl (10 µM) | 2 | 0 | 0 | 0 | 1 | 0 | 0 | 0 | 0 | 0 | 0 | 0 | 0 | 0 | 0 | 0 | 0 | 0 | 0 | 0 |
| COc1cc(OC2CCN(C)CC2)ccc1Nc1ncc2c(n1)n(C1CCCC1)c(=O)n2C (10 µM) | 0 | 0 | 0 | 0 | 0 | 0 | 0 | 0 | 0 | 0 | 0 | 0 | 0 | 0 | 0 | 0 | 0 | 0 | 0 | 0 |
| Cn1cc(-c2ccc3c(c2)CCN3C(=O)Cc2cccc(C(F)(F)F)c2)c2c(N)ncnc21 (2.5 µM) | 0 | 0 | 0 | 0 | 0 | 0 | 0 | 0 | 0 | 0 | 0 | 0 | 0 | 0 | 0 | 0 | 0 | 0 | 0 | 0 |
| C[C@@H]1COCCN1c1cc(C2([S@@](C)(=N)=O)CC2)nc(-c2ccnc3[nH]ccc23)n1 [(S)-Ceralasertib] (10 µM) | 0 | 0 | 0 | 0 | 0 | 0 | 0 | 0 | 0 | 0 | 0 | 0 | 0 | 0 | 0 | 0 | 0 | 0 | 0 | 0 |
| Cc1c(NC(=O)c2cccn(-c3ccc(F)cc3)c2=O)ccc(Oc2ccnc(NC(=O)C3CC3)c2)c1C (2 µM) | 0 | 0 | 0 | 4 | 1 | 0 | 2 | 0 | 0 | 0 | 0 | 0 | 0 | 0 | 0 | 1 | 0 | 0 | 3 | 4 |
| Oc1cc2c(cc1O)C(Cc1cccc3ccccc13)NCC2 (stereo not given) (10 µM) | 0 | 0 | 0 | 0 | 0 | 0 | 0 | 0 | 0 | 0 | 0 | 0 | 0 | 0 | 0 | 0 | 0 | 0 | 0 | 0 |
| Cc1cc(CN2CCN(c3c(Br)cnc4nc(-c5ccc(N6CCN(C)CC6)cc5)[nH]c34)CC2)no1 (2.5 µM) | 0 | 0 | 0 | 0 | 0 | 0 | 0 | 0 | 0 | 0 | 0 | 0 | 0 | 0 | 0 | 0 | 0 | 0 | 0 | 0 |
| CC1=C(C(=O)O)N2C(=O)[C@@H](NC(=O)[C@H](N)C3=CCC=CC3)[C@H]2SC1 [Cephradine] (10 µM) | 0 | 0 | 0 | 0 | 0 | 0 | 0 | 0 | 0 | 0 | 0 | 0 | 0 | 0 | 0 | 0 | 0 | 0 | 0 | 0 |
| CCN1CCN(Cc2ccc(-c3cc4c(N[C@H](C)c5ccccc5)ncnc4[nH]3)cc2)CC1 (2.5 µM) | 1 | 0 | 1 | 4 | 2 | 2 | 2 | 3 | 0 | 0 | 1 | 3 | 0 | 2 | 2 | 2 | 1 | 0 | 4 | 2 |
| OCCn1cc(-c2ccc3c(c2)CC/C3=N\O)c(-c2ccncc2)n1 (10 µM) | 0 | 0 | 0 | 0 | 0 | 0 | 0 | 0 | 0 | 0 | 0 | 0 | 0 | 0 | 0 | 0 | 0 | 0 | 0 | 0 |
| Cc1nc2sccn2c(=O)c1CCN1CCC(=C(c2ccccc2)c2ccc(F)cc2)CC1 (10 µM) | 0 | 0 | 0 | 0 | 0 | 0 | 0 | 0 | 0 | 0 | 0 | 0 | 0 | 0 | 0 | 0 | 0 | 0 | 0 | 0 |
| CN(CC(=O)N(Cc1ccc(C2CCCCC2)cc1)c1ccc(C(=O)NO)cc1)S(=O)(=O)c1c(F)c(F)c(F)c(F)c1F (2.5 µM) | 0 | 0 | 0 | 0 | 0 | 0 | 0 | 0 | 0 | 0 | 0 | 0 | 0 | 0 | 0 | 0 | 0 | 0 | 0 | 0 |
| COc1cc2c(cc1OC)CN(S(=O)(=O)c1ccc(OC)c(N3CCN(C(=O)c4ccc(F)cc4C(F)(F)F)CC3)c1)CC2 (10 µM) | 0 | 0 | 0 | 0 | 0 | 0 | 0 | 0 | 0 | 0 | 0 | 0 | 0 | 0 | 0 | 0 | 0 | 0 | 0 | 0 |
| CC(C)(C)c1nc(-c2cccc(NS(=O)(=O)c3c(F)cccc3F)c2F)c(-c2ccnc(N)n2)s1 [Dabrafenib] (2.5 µM) | 0 | 0 | 0 | 0 | 0 | 0 | 0 | 0 | 0 | 0 | 0 | 0 | 0 | 0 | 0 | 0 | 0 | 0 | 5 | 0 |
| CCN1CCN(Cc2ccc(Nc3ncc(F)c(-c4cc(F)c5nc(C)n(C(C)C)c5c4)n3)nc2)CC1 [Abemaciclib] (2 µM) | 0 | 0 | 1 | 0 | 1 | 0 | 0 | 0 | 0 | 0 | 0 | 0 | 0 | 0 | 0 | 0 | 0 | 0 | 0 | 0 |
| CNC(=O)c1c(F)cccc1Nc1nc(Nc2cc3c(cc2OC)CCN3C(=O)CN(C)C)nc2[nH]ccc12 (10 µM) | 0 | 0 | 0 | 0 | 0 | 0 | 0 | 0 | 0 | 0 | 0 | 0 | 0 | 0 | 0 | 0 | 0 | 0 | 0 | 0 |
| COc1cccc(OC)c1C(=O)OCc1cc(O)ccc1O[C@@H]1O[C@H](CO)[C@@H](O)[C@H](O)[C@H]1O [Curculigoside] (10 µM) | 0 | 0 | 0 | 0 | 0 | 0 | 0 | 0 | 0 | 0 | 0 | 0 | 0 | 0 | 0 | 0 | 0 | 0 | 0 | 0 |

2 compounds from above, limited to number of time points (IRAK3) and number of time points [1].
SMILES | number of time points (IRAK3) | number of time points [1]
CCCS(=O)(=O)Nc1ccc(F)c(C(=O)c2c[nH]c3ncc(-c4ccc(Cl)cc4)cc23)c1F [Vemurafenib] (10 µM) | 0 | 0
O=C(NOCC(O)CO)c1cc(Br)c(F)c(F)c1Nc1ccc(I)cc1F (stereo not given) (2.5 µM) | 0 | 0

From the supplement of paper PMC12823440, “Inhibitors supercharge kinase turnover through native proteolytic circuits” (Nature, 2025)
